The source of these data is paper PMC7840129, “Structural basis for heme-dependent NCoR binding to the transcriptional repressor REV-ERBβ” (Science Advances, 2021).

The target in assay [1] is T1, human REV-ERBβ ligand-binding domain (residues 381 to 579) (human) (UniProt Q14995).
T1 sequence: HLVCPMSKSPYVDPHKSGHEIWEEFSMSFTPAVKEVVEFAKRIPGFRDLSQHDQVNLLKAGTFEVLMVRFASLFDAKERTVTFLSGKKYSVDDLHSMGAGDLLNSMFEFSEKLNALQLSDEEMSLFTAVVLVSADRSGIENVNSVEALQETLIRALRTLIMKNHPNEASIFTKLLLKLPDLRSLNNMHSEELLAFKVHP
Briefly: cross-linking; DSSO (600 μM), 4 μM apo or heme-bound LBD alone, without RID; 25 mM Hepes pH 7.5, 50 mM NaCl, 0.5 mM TCEP; 25°C, 45 min; SDS-PAGE; both purified.

Assay [2] deals with T1, human REV-ERBβ ligand-binding domain (residues 381 to 579) (human). The assay is described as follows: crystal structure; LBD with 2 molar equivalents of heme and 5 molar equivalents of ID1 or ID2 peptide; sitting drop, 22°C; both purified.
For assay [3] the target is unchanged. The assay is described as follows: NMR titration; 2D [1H,15N]-TROSY-HSQC of 15N-labelled apo LBD (200 μM) titrated with ID1 or ID2 peptide; 298 K; 20 mM Hepes pH 7.4, 50 mM NaCl, 0.5 mM EDTA; both purified.
Assay [4] shares this target. Briefly: NMR titration; 2D [1H,15N]-TROSY-HSQC of 15N-labelled heme-bound LBD (200 μM, 1.25 molar equivalents of heme) titrated with ID1 or ID2 peptide; 298 K; 20 mM Hepes pH 7.4, 50 mM NaCl, 0.5 mM EDTA; both purified.

No constants are given. Whether binding was seen depends on the method and setting. Some results given as binding are weak or reduced against the parent protein; the word gives no strength.

B1: human REV-ERBβ ligand-binding domain (residues 381 to 579) (domain or fragment, UniProt Q14995 381-579, looked up)
chain: T1 sequence
notes: cloned into pET46; Used ligand-free (apo) or loaded with heme (a small molecule; 1.05 to 2 molar equivalents); the two states are told apart by the assays; also called REV-ERBβ LBD; LBD; source: E. coli BL21(DE3), purified (IMAC, 3C protease cleavage, size exclusion); 15N-labelled in M9 minimal media for NMR; not shown: 6xHis, N-terminal, cleaved
In the case of B1, in assay [1], the binding entry was “binds weakly”.

B2: NCoR ID1 peptide (peptide)
peptide: RTHRLITLADHICQIITQDFARN
modifications: N-terminal amidation and C-terminal acetylation (so in the source)
Regarding B2, the binding result in assay [2], in assay [3] and in assay [4] was “binds” throughout.
